In assay [1] the target is T1, Phospholipase C β4 (mouse (endogenous in BMMs and preosteoclasts)) (UniProt Q91UZ1).
T1 sequence: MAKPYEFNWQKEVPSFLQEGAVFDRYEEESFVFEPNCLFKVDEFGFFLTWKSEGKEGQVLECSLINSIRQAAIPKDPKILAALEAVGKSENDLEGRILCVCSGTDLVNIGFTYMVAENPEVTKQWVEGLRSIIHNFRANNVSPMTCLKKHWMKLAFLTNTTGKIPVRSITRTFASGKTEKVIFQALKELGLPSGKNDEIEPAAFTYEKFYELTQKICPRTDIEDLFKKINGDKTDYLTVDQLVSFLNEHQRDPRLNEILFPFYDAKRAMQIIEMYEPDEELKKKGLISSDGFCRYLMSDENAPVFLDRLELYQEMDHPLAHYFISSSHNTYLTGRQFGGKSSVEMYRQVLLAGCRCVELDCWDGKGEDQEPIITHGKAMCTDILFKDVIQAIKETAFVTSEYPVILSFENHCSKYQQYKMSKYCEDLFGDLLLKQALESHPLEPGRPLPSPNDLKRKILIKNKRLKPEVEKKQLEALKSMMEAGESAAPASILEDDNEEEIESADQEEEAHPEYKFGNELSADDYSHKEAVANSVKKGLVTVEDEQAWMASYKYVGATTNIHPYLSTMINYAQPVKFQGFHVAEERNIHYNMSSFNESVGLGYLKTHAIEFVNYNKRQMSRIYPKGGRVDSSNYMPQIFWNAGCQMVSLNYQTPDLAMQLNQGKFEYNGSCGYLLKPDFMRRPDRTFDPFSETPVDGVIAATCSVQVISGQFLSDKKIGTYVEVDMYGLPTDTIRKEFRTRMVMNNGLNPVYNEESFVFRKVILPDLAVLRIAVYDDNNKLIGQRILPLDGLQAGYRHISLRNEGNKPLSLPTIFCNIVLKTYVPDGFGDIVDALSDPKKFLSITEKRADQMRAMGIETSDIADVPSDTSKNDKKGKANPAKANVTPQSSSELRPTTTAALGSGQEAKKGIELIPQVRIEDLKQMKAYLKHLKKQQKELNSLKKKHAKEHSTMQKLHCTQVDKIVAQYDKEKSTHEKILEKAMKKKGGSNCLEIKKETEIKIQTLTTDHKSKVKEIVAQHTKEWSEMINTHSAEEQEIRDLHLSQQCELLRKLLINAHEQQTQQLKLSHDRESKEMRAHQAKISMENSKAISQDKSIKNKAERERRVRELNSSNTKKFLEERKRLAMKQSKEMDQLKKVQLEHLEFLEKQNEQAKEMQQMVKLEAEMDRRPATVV
In words: co-IP; lysate of serum- and cytokine-starved BMMs stimulated with RANKL (50 ng/ml) for the indicated times; IP with anti-PLCβ4 antibody; immunoblot with anti-MKK3, anti-p38 and anti-PLCβ4. Background: In western blotting, separated proteins are transferred to a membrane and probed.

Assay [2] concerns the target T1, Phospholipase C β4 (mouse (endogenous in BMMs and preosteoclasts)). In words: co-IP; lysate of preosteoclasts (50 mM Tris-HCl pH 7.4, 150 mM NaCl, 1% Nonidet P-40, 1 mM EDTA); IP with anti-PLCβ4 antibody or normal mouse IgG, Sepharose A beads; immunoblot with anti-p38 and anti-PLCβ4.

Results are given in words; binding and its absence hold for the method and conditions named. Binding seen in cells or lysates may run through a third protein. A result given as binding can be weak or reduced; the word gives no strength.

The text below walks through data of publication PMC11873240.

With “p38 mitogen-activated protein kinase (enzyme)”, the binding result in assay [1] and in assay [2] was “binds” throughout.
